Laboratory results reported in PubChem BioAssay (NCATS).
The inconclusive results got no clear call from the source; some entries with a clear call stand among them for comparison. For some assays here: Where the call is inconclusive, the potency comes from a doubtful curve fit. The source made the active and inactive calls. The call rests on the fitted dose curve; in most records, active means well fitted curve in the direction sought with a large enough effect; inconclusive means small, poorly fitted or top-dose-only effect, or another doubt; inactive means no such curve, though single readings can be large; an effect the other way counts as inactive or inconclusive.

By UniProt entry, the sequences of proteins in these tests, tags left out. Where a name states a change or a piece, a line headed by the entry shows the natural chain unless it says otherwise.
UniProt Q14994: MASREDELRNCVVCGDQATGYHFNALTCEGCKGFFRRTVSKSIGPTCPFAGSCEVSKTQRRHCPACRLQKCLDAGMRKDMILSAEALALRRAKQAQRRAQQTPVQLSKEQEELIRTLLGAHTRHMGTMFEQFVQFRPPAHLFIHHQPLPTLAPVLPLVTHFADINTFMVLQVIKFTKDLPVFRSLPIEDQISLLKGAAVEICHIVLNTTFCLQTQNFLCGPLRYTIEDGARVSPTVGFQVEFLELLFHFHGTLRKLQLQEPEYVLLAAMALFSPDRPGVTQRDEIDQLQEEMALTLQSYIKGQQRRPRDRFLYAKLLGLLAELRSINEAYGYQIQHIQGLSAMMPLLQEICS

Tests used:
[1] = system: NAD(P)H diaphorase (Clostridium kluyveri); experiment: Diaphorse counterscreen qHTS: Assay Interference Panel against the NCATS CANVASS Library (AID 1347362); further: potency means the concentration at half of the fitted maximal effect
In short: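 Clostridium kluyveri diaphorase in PBS with 0.01% Tween-20 was preincubated 15 min at room temperature in the dark with compounds (11-point series). Resorufin fluorescence (ex 525/20, em 598/25) was read 5 min after adding resazurin/NADH.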

[2] = G06 Cancer Cell Toxicity qHTS against the NCATS CANVASS Library (AID 1347368); further: potency means the concentration at half of the fitted maximal effect; nearly all actives have a fitted effect of over 60% in size
In short: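 ATP luminescence (CellTiterGlo) readout of cytotoxicity. Canine G06 glioma cells, 500/well, 72 hr incubation at 37C with compounds; bortezomib titration served as control.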

[3] = MCF7 Cancer Cell Toxicity qHTS against the NCATS CANVASS Library (AID 1347369); conditions: activity change, negative = cytotoxicity: at 46 µM (top of the series); further: potency means the concentration at half of the fitted maximal effect; on activity change, negative = cytotoxicity: on the % scale 0 is the no-effect control and ±100 the full control effect
In short: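 MCF7 cells (500/well) were exposed 72 h at 37 °C to compounds in an 11-point series. Viability was read as ATP content by CellTiterGlo luminescence.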

[4] = qHTS for ATAD5 Antagonist screened against the NCATS CANVASS Library (AID 1347370); further: potency means the concentration at half of the fitted maximal effect; nearly all actives have a fitted effect of over 65% in size
In short: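 HEK293T-ATAD5 luc reporter, 2000 cells/well; 5hr attach; cpd + 10 uM 5-FUrd; 16hr 37C, 5% CO2. Readouts: CellTiter-Fluor fluorescence (1hr), then Amplite luciferase luminescence (30min RT).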

[5] = molecular target: Nuclear receptor subfamily 1 group I member 3 (Homo sapiens) (UniProt Q14994); experiment: qHTS for Constitutive Androstane Receptor (CAR) Antagonist screened against the NCATS CANVASS Library (AID 1347372); further: potency means the concentration at half of the fitted maximal effect
In short: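 Cells were seeded and left 4hr to attach, then received compound at 11 concentrations and 50 nM CITCO. Following 24hr incubation, fluorescence viability and luciferase luminescence were read sequentially.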

[6] = qHTS for H2AX Agonists against the NCATS CANVASS Library (AID 1347378); further: potency means the concentration at half of the fitted maximal effect
In short: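 CHO-K1 cells (1000/well, overnight at 37C) exposed to compounds at several concentrations for 3 hr at 37C, 0.76% DMSO final. Lysates read by TR-FRET (phospho-H2AX S139 Eu-cryptate antibody / H2AX-d2 antibody) after 24 hr at room temperature; 665/615 nm ratio.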

[7] = qHTS for Inflammasome Signaling Inhibitors: IL-1-beta AlphaLISA screen against the NCATS CANVASS Library (AID 1347379);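 further: human THP-1 cells primed with LPS then triggered with ATP; secreted IL-1B measured as AlphaLISA emission at 615 nm; potency means the concentration at half of the fitted maximal effect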
In short: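 THP-1, 1 hr compound pre-incubation, then LPS 250 ng/mL + ATP 1.25 mM (final); 16 hr total with compound; IL-1B AlphaLISA, ex 680/em 615 nm; 11-point qHTS, up to 57.5 uM final.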

[8] = qHTS assay for small molecule disruptors of mitochondrial membrane potential screened against the NCATS CANVASS Library (AID 1347389); further: potency means the concentration at half of the fitted maximal effect; nearly all actives have a fitted effect of over 60% in size
In short: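 Red/green fluorescence ratio read-out: J-aggregates ex 540/em 590 nm, monomers ex 490/em 535 nm. HepG2, 1 hr compound treatment, then 30 min Mito-MPS dye at 37C. 11-pt qHTS concentration series.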

[9] = COV-362 Cancer Cell Toxicity qHTS against the NCATS CANVASS Library (AID 1347352); further: potency means the concentration at half of the fitted maximal effect
In short: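 1000 cells/well, 4 h pre-incubation 37 °C/5% CO2; 11-pnt titration; 72 h; CellTiter-Glo 15 min RT, luminescence.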

[10] = SDT Cancer Cell Toxicity qHTS against the NCATS CANVASS Library (AID 1347365); further: potency means the concentration at half of the fitted maximal effect; nearly all actives have a fitted effect of over 60% in size
In short: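 Luminescent ATP read-out (CellTiterGlo) after 72 hr compound exposure of dog glioma SDT cells, 500 per well. Eleven-point titrations; bortezomib titration run alongside as control.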

[11] = KB-3-1 Cancer Cell Toxicity qHTS against the NCATS CANVASS Library (AID 1347366); further: nearly all actives have a fitted effect of over 75% in size; further: potency means the concentration at half of the fitted maximal effect; on activity change, negative = cytotoxicity: on the % scale 0 is the no-effect control and ±100 the full control effect
In short: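 KB-3-1 cells (500/well) in DMEM with 10% FBS were exposed to compounds for 72 h at 37C. Viability was read by CellTiter-Glo luminescence.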

[12] = qHTS for Hypoxia signaling pathway (HIF-1) agonists against the NCATS CANVASS Library (AID 1347375); further: potency means the concentration at half of the fitted maximal effect
In short: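 Read-out: beta-lactamase FRET (CCF4-AM, ex 405, em 460 and 530 nm) after 2 h at room temperature. ME-180 cells stably carrying HRE-bla were treated 17 h at 37C with compounds in an 11-point concentration series.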

[13] = Vero-766 cells viability qHTS against the NCATS CANVASS Library: Counterscreen for Zika virus inhibition assay (AID 1347394); conditions: Vero 766 viability, CellTiter-Glo luminescence, 72 h; activity change, negative = cytotoxic: at 46.1 µM (top of the series); further: nearly all actives have a fitted effect of over 60% in size; further: potency means the concentration at half of the fitted maximal effect; on activity change, negative = cytotoxic: on the % scale 0 is the no-effect control and ±100 the full control effect
In short: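 Vero 766 cells (1000/well), without Zika virus, were exposed to compounds for 72 h at 37C. Viability was measured by CellTiter Glo luminescence. Media-only wells served as 100% inhibition.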

[14] = molecular target: Nuclear receptor subfamily 1 group I member 3 (Homo sapiens) (UniProt Q14994); experiment: qHTS for Constitutive Androstane Receptor (CAR) Agonist screened against the NCATS CANVASS Library (AID 1347373);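 further: every well also contained 1.5 µM PK11195 alongside the test compound; 0% is about no effect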
In short: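 Luciferase read-out (ONE-Glo, 30 min RT) of CYP2B6-2.2kb promoter activity in double-stable HepG2-hCAR cells after 24hr compound exposure with 1.5uM PK11195 present; viability measured first by CellTiter-Fluor.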

[15] = DH5-alpha competent E. coli microbial cell viability qHTS against the NCATS CANVASS Library (AID 1347377); conditions: viability signal change, negative = cytotoxic: at 46.1 µM (top of the series); on viability signal change, negative = cytotoxic: 0% is about no effect
In short: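 Luminescent ATP read-out (BacTiter-Glo, 20 min RT) after overnight 37C culture of DH5-alpha E. coli with compounds; daunomycin control at 0.2 nM–9.2 uM final.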

[16] = J3T Cancer Cell Toxicity qHTS against the NCATS CANVASS Library (AID 1347371); further: potency means the concentration at half of the fitted maximal effect;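 on activity change, negative = cytotoxicity: J3T is a canine glioma cancer cell line seeded at 500 cells per well; on the % scale 0 is the no-effect control and ±100 the full control effect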
In short: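 Dog glioma J3T, 500 cells/well; cpd 11-pt qHTS; 72 hr, 37C/5% CO2; CellTiterGlo ATP luminescence readout.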

[17] = HEK293 18hr Apoptosis Induction qHTS against the NCATS CANVASS Library (AID 1347357); further: potency means the concentration at half of the fitted maximal effect
In short: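 HEK293 cells (500/well, DMEM + 10% FBS) treated with an 11-point series for 18 h at 37 degrees C. Caspase-3/7 activity read by Caspase-Glo luminescence after 15 min at room temperature.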

[18] = Redox Reaction Profiling qHTS: Assay Interference Panel against the NCATS CANVASS Library (AID 1347401); further: potency means the concentration at half of the fitted maximal effect
In short: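 Quantitative HTS over an 11-point series was run in HEPES pH 7.3 with 50 mM NaCl, 200 uM DTT and 5 uM resazurin. Initial and 15-min resorufin fluorescence readings were taken.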

CN1C(=O)[C@]23SS[C@@]1(C)C(=O)N2[C@H]1Nc2ccccc2[C@]1(c1c[nH]c2ccccc12)[C@@H]3O
Potency [1]: inconclusive: 27.2 µM [inhibitor, partial curve, poor fit]
Potency [2]: active: 0.296 µM
Potency [3]: active: 3.7 µM
Potency [4]: active: 4.67 µM
Potency [5]: active: 10.5 µM
Potency [6]: active: 21.7 µM
Potency [7]: active: 1.53 µM
Potency [8]: inconclusive: 37.1 µM [inhibitor, single point]

O=C1CCC(=O)N(O)CCCCCNC(=O)CCC(=O)N(O)CCCCCNC(=O)CCC(=O)N(O)CCCCCN1
Potency [9]: inconclusive: 11.8 µM [cytotoxic, partial curve]
Potency [1]: inactive
Potency [10]: active: 4.18 µM
Potency [11]: inconclusive: 29.6 µM [cytotoxic, single point]
Potency [2]: active: 8.33 µM
Potency [3]: inconclusive: 18.6 µM [cytotoxic, partial curve]
Potency [12]: inconclusive: 9.41 µM [activator, full curve]
activity change, negative = cytotoxic [13]: inconclusive: -32.1% [cytotoxic]

C/C(=C\CC[C@@H](C)[C@H]1CC[C@]2(C)C3=CCC4C(C)(C)[C@@H](O)C[C@@H](O)[C@]4(C)C3[C@H](O)C[C@@]12C)CO (stereo partly specified)
Potency [9]: inconclusive: 29.8 µM [cytotoxic, single point]
Potency [1]: inconclusive: 24.3 µM [inhibitor, partial curve, poor fit]
Potency [11]: inactive
Potency [14]: inactive
Potency [15]: inconclusive: 33.1 µM [rising, single point]

COc1ccc([C@@H]2c3cc4c(cc3C[C@H](C)C2C)OCO4)cc1OC (stereo partly specified)
Potency [11]: inconclusive: 33.2 µM [cytotoxic, single point]
Potency [4]: inconclusive: 23.4 µM [inhibitor, partial curve]
Potency [16]: inactive
Potency [13]: inconclusive: 6.6 µM [cytotoxic, single point]

CC[C@H]1[C@H](C)[C@H](c2cc(OC)c(OC)cc2OC)[C@@H](C)[C@H](c2cc(OC)c(OC)cc2OC)[C@@]12C=C(OC)C(=O)C=C2OC
Potency [9]: inconclusive: 21.1 µM [cytotoxic, single point]
Potency [17]: inconclusive: 33.2 µM [activator, single point]
Potency [1]: active: 21.6 µM
Potency [10]: inconclusive: 20.9 µM [cytotoxic, single point]
Potency [11]: inconclusive: 33.2 µM [cytotoxic, single point]
Potency [2]: active: 23.5 µM
Potency [4]: inconclusive: 37.1 µM [inhibitor, single point]
Potency [15]: inactive
Potency [7]: inconclusive: 43.2 µM [inhibitor, single point]
Potency [18]: inactive

C/C(=C\[C@H](C)C(=O)/C=C/CC1CC(=O)NC(=O)C1)[C@@H]1OC(=O)CCCC/C=C/[C@H](O)[C@@H](O)[C@@H]1C
Potency [9]: inconclusive: 13.3 µM [cytotoxic, partial curve]
Potency [10]: active: 13.2 µM
Potency [11]: inconclusive: 37.2 µM [cytotoxic, single point]
Potency [2]: active: 5.9 µM
Potency [4]: active: 23.4 µM
Potency [16]: inconclusive: 26.4 µM [cytotoxic, single point]
Potency [6]: inactive

C/C(=C\[C@@H](C)CC/C=C/CC/C=C/C(=O)O)[C@H](O)[C@H](C)C(=O)CCCC1CC(=O)NC(=O)C1
Potency [10]: inconclusive: 8.33 µM [cytotoxic, full curve]
Potency [2]: inconclusive: 9.35 µM [cytotoxic, full curve]
Potency [6]: inactive
Potency [18]: inconclusive: 27.1 µM [activator, partial curve, poor fit]

CO[C@@H]1C[C@@H](C[C@H]2CC[C@H](C)[C@H]([C@@H](C)C(=O)O)O2)O[C@]2(O[C@](C)([C@H]3CC[C@@](C)([C@@H]4O[C@@H]([C@H]5O[C@](C)(O)[C@H](C)C[C@@H]5C)C[C@@H]4C)O3)C[C@H]2C)[C@@H]1C
Potency [1]: inconclusive: 13.6 µM [inhibitor, partial curve, poor fit]
Potency [3]: active: 14.7 µM
Potency [5]: inconclusive: 37.1 µM [inhibitor, single point]
Potency [12]: inconclusive: 26.5 µM [activator, single point]
Potency [15]: inconclusive: 10.5 µM [rising, partial curve]

CC1=C[C@H]2[C@H]3C(=O)C(c4ccc(O)cc4)=C[C@@]3(c3ccc(O)cc3)[C@@H]1C(=O)[C@]2(C)O
Potency [10]: active: 0.209 µM
Potency [3]: inactive
Potency [16]: inconclusive: 0.662 µM [cytotoxic, full curve]
Potency [5]: active: 0.933 µM
Potency [13]: inconclusive: 1.17 µM [cytotoxic, full curve]
